Experimental data as given in US20100056606A1, “Combination therapy using budesonide and antisense oligonucleotide targeted to IL4-receptor alpha” (ISIS Pharmaceuticals, Inc., priority 2005, published 2010).
For at least one compound, name, drawing or mass did not settle the structure.

Columns and labels:
Type in all cases: in vivo
OVA sensitized mice [1] = assay: Mouse model of allergic inflammation, chronic model (Penh, BAL cells, cytokines)
Description: In the mouse model of allergic inflammation, mice are sensitized and challenged with aerosolized chicken ovalbumin (OVA). Airway responsiveness is assessed by inducing airflow obstruction using a noninvasive method whereby unrestrained conscious OVA sensitized mice are placed into the main chamber of a plethysmograph (Buxco Electronics, Inc. Troy, N.Y.) and challenged with aerosolized methacholine. Pressure difference between this chamber and a reference chamber is used to extrapolate minute volume, breathing frequency and enhanced pause (Penh). Penh is a dimensionless parameter that is a function of total pulmonary airflow (i.e. the sum of the airflow in the upper and lower respiratory tracts) during the respiratory cycle of a mouse and is […] when airflow is greater. This parameter closely correlates with lung resistance as measured by traditional, invasive techniques using ventilated animals (Hamelmann et al., 1997, Am. J. Respir. Crit. Care Med. 156:766-775).
In the chronic model of allergic inflammation, mice are subjected to repeated intranasal OVA administration, producing a chronic inflammatory response. In this model, mice were sensitized by intraperitoneal injection with 100 μg of OVA on days 0 and 14 as in the previous models. OVA was administered at a dose of 500 μg on days 14, 27, 28, 29, 47, 61, 73, 74 and 75. Oligonucleotide, either ISIS 231894 or the mismatch control, was administered via the nose-only aerosol delivery exposure system at a dose of either 5 μg/kg or 500 μg/kg on days 31, 38, 45, 52, 59, 66 and 73. Dexamethasone, an anti-inflammatory agent, was administered by intraperitoneal injection at 2.5 mg/kg on days 47, 62, 73, 74 and 75. Analysis of endpoints was performed on day 76, except cytokines which were evaluated on day 62, 6 hours post OVA challenge. Endpoints were similar to those in the acute and rechallenge model, and included Penh (AHR), BAL inflammatory cell accumulation and cytokines and mucus accumulation.

OVA sensitized mice [2] = assay: Allergic rhinitis mouse model, intranasal administration; settings: alone and in combination
Description: In a mouse model of allergic rhinitis, animals were sensitized intraperitoneally with alum-precipitated OVA on days 1, 5, 10 and 15. OVA diluted with saline was administered intranasally (25 μL of 500 μg OVA in each nare) daily, on days 18-22, 25-29, and 32-35. ISIS 231894 and budesonide were administered intranasally, with budesonide administration one hour before each intranasal OVA challenge. ISIS 231894 was administered on days 11, 13, 15, and one hour before each intranasal OVA challenge. Endpoints were evaluated on day 36 and included nasal mucus accumulation (nasal histopathology) nasal eosinophilia, neutrophilia (by nasal lavage analysis and microscopic eosinophil counts in epithelial tissue) and allergic symptoms (numbers of sneezes and nose-rubs observed over a fixed time period).

OVA sensitized mice [3] = assay: Acute allergic inflammation mouse model with inhaled budesonide and/or ISIS 231894; settings: doses of 30 and 300 μg/kg

Compound | percent of eosinophils in BAL fluid vs vehicle control, in words (OVA sensitized mice [1]; ISIS 231894 500 μg/kg, dexamethasone 2.5 mg/kg ip) | methacholine-induced AHR (Penh) vs vehicle, in words (OVA sensitized mice [1]; ISIS 231894 each dose (5, 500 μg/kg), dexamethasone 2.5 mg/kg ip) | percent neutrophils in BAL, in words (OVA sensitized mice [1]; both doses of ISIS 231894, dexamethasone 2.5 mg/kg ip) | IL-5 and KC in BAL fluid vs vehicle, in words (OVA sensitized mice [1]; day 62, ISIS 231894 500 μg/kg, dexamethasone 2.5 mg/kg ip) | nasal eosinophilia, neutrophilia and allergic symptoms (sneezes and nose rubs), in words (OVA sensitized mice [2]) | Penh, BAL eosinophil accumulation and mucus accumulation vs vehicle alone, in words (OVA sensitized mice [3])
C[C@@H]1C[C@H]2[C@@H]3CCC4=CC(=O)C=C[C@]4(C)[C@@]3(F)[C@@H](O)C[C@]2(C)[C@@]1(O)C(=O)CO [dexamethasone, reference compound] | significant decrease | significant decrease | did not decrease | significant reduction |  | 
CCCC1O[C@@H]2C[C@H]3[C@@H]4CCC5=CC(=O)C=C[C@]5(C)[C@H]4[C@@H](O)C[C@]3(C)[C@]2(C(=O)CO)O1 (stereo partly drawn) [budesonide] |  |  |  |  | reduce nasal eosinophilia, neutrophilia and allergic symptoms | significant improvement
